In patent US10443089B2, “Methods of multiplexing DNA sensors and localizing DNA sensor” (NATIONAL CENTRE FOR BIOLOGICAL SCIENCES (NCBS-TIFR), priority 2013, dated 2019):

Tested on: IA2.2 cells expressing scFv-furin
Test: SimpHony of early and late endosomes with and without Dynasore
Format: cell-based, Chinese Hamster
Conditions: presence of 160 μM dynasore
Protocol: The DNA sensor of the present disclosure is applied to this system, by marking early endosomes with about 500 nM Tf-I^TfA488/A647 and late endosomes with about 500 nM I^FuA546/A647 in the presence and absence of Dynasore. I^n the absence of Dynasore, early endosomes undergo active fusion and fission; showing an average pH of about 6.05±0.07 (FIG. 17) while the late endosomes show an average pH of about 5.43±0.3.
FIG. 17 depicts Dynasore mediated arrest of endosomal fission. Early/sorting and late endosomes in IA2.2 cells expressing scFv-furin are marked with about 500 nM Tf-I^TfA488/A647 at 37° C. for 10 min. Time lapse images of control cells (−Dy) where no dynasore is added, (+Dy) in presence of about 160 μM dynasore and (W) after dynasore is washed out and incubated for about 10 min at about 37° C. for recovery. Images are acquired with a time interval of about 2 s over 2 min period and compressed to a movie playing at 7 fps.

What does the source list for `O=C(N/N=C/c1ccc(O)c(O)c1)c1cc2ccccc2cc1O` [Dynasore]?
lumenal pH of late endosomes: 5.44±0.38; mean lumenal pH of early endosomes: 6.58±0.19
